Source: publication PMC6127343

Chains of the proteins cited; added tags and fusions are not shown. Lines headed by an entry give the natural chain unless they say otherwise; changes in a name come on top. Residues count along the entry.
UniProt P02545, residues 1-646: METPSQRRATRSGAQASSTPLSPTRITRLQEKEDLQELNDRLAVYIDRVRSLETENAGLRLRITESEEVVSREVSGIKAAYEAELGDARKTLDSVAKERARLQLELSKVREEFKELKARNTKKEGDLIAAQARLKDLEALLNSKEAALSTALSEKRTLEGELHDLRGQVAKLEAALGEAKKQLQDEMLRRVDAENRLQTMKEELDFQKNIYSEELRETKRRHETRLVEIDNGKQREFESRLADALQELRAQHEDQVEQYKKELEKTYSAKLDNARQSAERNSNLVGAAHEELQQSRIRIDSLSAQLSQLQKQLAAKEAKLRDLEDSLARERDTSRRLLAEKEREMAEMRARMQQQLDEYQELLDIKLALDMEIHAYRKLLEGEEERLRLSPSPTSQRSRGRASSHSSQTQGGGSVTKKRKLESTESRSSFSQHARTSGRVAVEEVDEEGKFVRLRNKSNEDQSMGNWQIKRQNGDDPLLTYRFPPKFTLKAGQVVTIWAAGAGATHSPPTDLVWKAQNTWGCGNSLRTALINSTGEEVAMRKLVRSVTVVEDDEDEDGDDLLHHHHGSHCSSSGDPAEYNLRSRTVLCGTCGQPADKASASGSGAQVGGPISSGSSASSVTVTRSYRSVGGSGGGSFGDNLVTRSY
UniProt P48681: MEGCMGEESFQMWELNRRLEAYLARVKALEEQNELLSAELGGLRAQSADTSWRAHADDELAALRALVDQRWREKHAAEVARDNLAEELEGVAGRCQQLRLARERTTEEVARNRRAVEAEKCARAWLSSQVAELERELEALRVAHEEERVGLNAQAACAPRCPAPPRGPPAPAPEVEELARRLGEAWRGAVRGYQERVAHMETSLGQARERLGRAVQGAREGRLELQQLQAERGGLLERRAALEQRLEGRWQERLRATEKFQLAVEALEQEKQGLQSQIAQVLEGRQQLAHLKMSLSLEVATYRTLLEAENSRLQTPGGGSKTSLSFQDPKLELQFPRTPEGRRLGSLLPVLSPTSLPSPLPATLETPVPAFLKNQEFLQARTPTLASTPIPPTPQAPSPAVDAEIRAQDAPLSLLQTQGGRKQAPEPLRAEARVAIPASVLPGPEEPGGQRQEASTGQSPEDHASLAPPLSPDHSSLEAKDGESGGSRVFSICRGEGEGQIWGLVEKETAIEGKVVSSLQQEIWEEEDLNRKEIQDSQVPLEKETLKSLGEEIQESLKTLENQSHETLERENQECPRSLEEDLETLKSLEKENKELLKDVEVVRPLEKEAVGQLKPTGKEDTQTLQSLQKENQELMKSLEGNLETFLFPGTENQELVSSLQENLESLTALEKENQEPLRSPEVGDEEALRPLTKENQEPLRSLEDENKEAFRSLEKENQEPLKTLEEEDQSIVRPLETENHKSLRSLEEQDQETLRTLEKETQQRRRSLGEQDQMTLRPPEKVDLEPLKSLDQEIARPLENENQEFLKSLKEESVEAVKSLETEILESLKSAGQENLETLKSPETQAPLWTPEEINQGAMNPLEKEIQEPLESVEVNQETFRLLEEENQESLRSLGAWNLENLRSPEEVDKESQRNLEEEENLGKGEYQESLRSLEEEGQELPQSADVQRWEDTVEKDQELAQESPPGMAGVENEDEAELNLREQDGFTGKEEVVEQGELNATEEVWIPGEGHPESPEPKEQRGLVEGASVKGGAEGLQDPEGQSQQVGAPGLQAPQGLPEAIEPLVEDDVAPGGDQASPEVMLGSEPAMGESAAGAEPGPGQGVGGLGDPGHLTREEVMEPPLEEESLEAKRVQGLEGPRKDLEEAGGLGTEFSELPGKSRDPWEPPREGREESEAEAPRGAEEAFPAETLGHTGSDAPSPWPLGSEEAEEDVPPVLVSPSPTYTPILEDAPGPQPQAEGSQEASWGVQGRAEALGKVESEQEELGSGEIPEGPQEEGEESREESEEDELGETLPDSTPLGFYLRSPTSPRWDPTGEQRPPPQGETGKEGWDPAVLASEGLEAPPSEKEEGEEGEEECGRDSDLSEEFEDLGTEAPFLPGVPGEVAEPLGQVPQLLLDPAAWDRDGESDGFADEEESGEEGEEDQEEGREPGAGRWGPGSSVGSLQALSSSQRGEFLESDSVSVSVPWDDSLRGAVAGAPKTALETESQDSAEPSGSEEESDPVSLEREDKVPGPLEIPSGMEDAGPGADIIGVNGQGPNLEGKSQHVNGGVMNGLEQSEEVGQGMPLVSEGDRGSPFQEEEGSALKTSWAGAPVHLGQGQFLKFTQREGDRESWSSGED

Biological target: lamin A/C (human (endogenous in A549, H1299 and HEK293T)) (UniProt P02545)
Test: co-IP; anti-lamin A/C immunoprecipitation of endogenous lamin A/C from HEK293T cells ectopically expressing Myc-Nestin constructs; Pierce IP lysis buffer, overnight at 4 °C, Dynabeads Protein G

binding: binds
Substance: Myc-Nestin C terminus of the rod domain (aa182-aa313) (from UniProt P48681) (domain or fragment)

Results are given in words; binding and its absence hold for the method and conditions named. Binding seen in cells or lysates may run through a third protein. Binding can be weak; no strength is given.
